Measurements: PubChem BioAssay AID485314 (National Center for Advancing Translational Sciences (NCATS), 2010)
The campaign covered roughly 340,000 compounds. About 4,500 (1.3%) were called active. This list was built around the results that the source calls inconclusive (neither active nor inactive); the mix of calls is not that of the screen. The call rests on the fitted dose curve; in most records, active means well fitted inhibition curve with a large enough effect; inconclusive means small, poorly fitted or top-dose-only effect, or another doubt; inactive means no such curve, though single readings can be large or run the other way. A potency beside an inconclusive call is a rough fit, not a confirmed value.

molecular target: DNA polymerase beta (Homo sapiens) (UniProt P06746); assay: qHTS Assay for Inhibitors of DNA Polymerase Beta; settings: Pol beta primer extension/strand displacement, fluorescence kinetic; activity change, negative = inhibition: at 114 µM (top of the series)
Procedure, shortened: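 10 nM enzyme + cpd, 15 min RT; start with substrate 50 nM final; read 0 min and after 10 min RT. Corrected, normalized data; 4-parameter Hill curve fit.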
On the % scale 0 is the no-effect control and ±100 the full control effect; potency means the concentration at half of the fitted maximal effect.

| SMILES | Potency | activity change, negative = inhibition |
| --- | --- | --- |
| O=C(COc1ccc2oc(-c3ccccc3)cc(=O)c2c1)NCc1ccco1 | active: 22.4 µM | – |
| Cc1ccc2oc(=O)n(CCOc3ccccc3C)c2c1 | inconclusive: 89.1 µM [inhibitor, single point] | – |
| O=C1ON=C(c2ccccc2)/C1=C\c1ccco1 | active: 31.6 µM | – |
| Cc1cc(N2CCCCCC2)nc2ccccc12 | inconclusive: 0.631 µM [inhibitor, full curve, poor fit] | – |
| O=Cc1c(NCCc2ccc(F)cc2)c2ccccc2[nH]c1=O | inconclusive: 35.5 µM [inhibitor, partial curve, poor fit] | – |
| CCOC(=O)c1ccc(NC(=O)C2(c3ccc(OC)cc3)CCOCC2)cc1 | inconclusive: 25.1 µM [inhibitor, single point] | – |
| CCOc1ccc(CNC(=O)c2cccn2-c2nnc(N3CCCCC3)s2)cc1OC | inconclusive: 100 µM [inhibitor, single point] | – |
| O=C(Nc1ccc(C(=O)OCc2cc(=O)n3nc(C4CC4)sc3n2)cc1)c1cccc(Cl)c1 | inconclusive: 89.1 µM [inhibitor, single point] | – |
| Cc1ccnc(NC(=O)CCC(=O)N(CC(=O)NC(C)(C)C)c2ccc3c(c2)OCCO3)c1 | inconclusive: 3.16 µM [inhibitor, partial curve] | – |
| CCOC(=O)C1(CCOc2ccccc2)CCN(Cc2cc(OC)ccc2OC)CC1 | inconclusive: 0.282 µM [inhibitor, full curve] | – |
| CCOc1ccc(CCNC(=O)c2cccc(-n3c(C)nc4cccnc43)c2C)cc1 | – | inactive: -0.0427% |
| O=C(N/N=C/c1ccc(-c2ccc(Cl)c(C(=O)O)c2)o1)c1cc2c(ccc3ccccc32)o1 | – | inconclusive: -149% [inhibitor] |
| CCCOc1cccc(C(=O)N2CCN(C(=O)C3CCCO3)CC2)c1 (stereo not drawn) | – | inactive: -12.6% |
| O=C(/C=C/c1ccco1)N1CCN(S(=O)(=O)c2cccs2)CC1 | active: 50.1 µM | – |
| O=C(Cc1ccccc1[N+](=O)[O-])NCCCc1ccccc1 | – | inactive: -1.89% |
| COCc1nc(-c2cc(OC)c(OC)c(OC)c2)no1 | – | inactive: -21.2% |
| O=C(c1ccc(-c2ccccc2)c(F)c1)C1CCCN(C(=O)c2cncs2)C1 (stereo not drawn) | inconclusive: 79.4 µM [inhibitor, single point] | – |
| O=C(Nc1cccnc1)NC1CCCCC1 | inconclusive: 39.8 µM [inhibitor, single point] | – |
| CCn1c2ccccc2c2cc(NC(=O)CSc3nnc(C4CC4)n3Cc3ccco3)ccc21 | inconclusive: 100 µM [inhibitor, single point] | – |
| Cc1cc(C)cc(OCc2cc(=O)n3c4c(sc3n2)CCCC4)c1 | – | inactive: 0.523% |
| COc1cc(OC)cc(C(=O)NCCSCc2ccco2)c1 | inconclusive: 0.794 µM [inhibitor, full curve, poor fit] | – |
| Cc1ccc(NC(=O)C(Cc2ccccc2)NS(=O)(=O)c2ccc3c(c2)oc(=O)n3C)cc1C (stereo not drawn) | inconclusive: 89.1 µM [inhibitor, single point] | – |

Another view of 11 compounds above:
SMILES	Potency	activity change, negative = inhibition
Cc1ccnc(NC(=O)CCC(=O)N(CC(=O)NC(C)(C)C)c2ccc3c(c2)OCCO3)c1	inconclusive: 3.16 µM [inhibitor, partial curve]	–
CCOC(=O)C1(CCOc2ccccc2)CCN(Cc2cc(OC)ccc2OC)CC1	inconclusive: 0.282 µM [inhibitor, full curve]	–
CCOc1ccc(CCNC(=O)c2cccc(-n3c(C)nc4cccnc43)c2C)cc1	–	inactive: -0.0427%
O=C(N/N=C/c1ccc(-c2ccc(Cl)c(C(=O)O)c2)o1)c1cc2c(ccc3ccccc32)o1	–	inconclusive: -149% [inhibitor]
CCCOc1cccc(C(=O)N2CCN(C(=O)C3CCCO3)CC2)c1 (stereo not drawn)	–	inactive: -12.6%
O=C(/C=C/c1ccco1)N1CCN(S(=O)(=O)c2cccs2)CC1	active: 50.1 µM	–
O=C(Cc1ccccc1[N+](=O)[O-])NCCCc1ccccc1	–	inactive: -1.89%
COCc1nc(-c2cc(OC)c(OC)c(OC)c2)no1	–	inactive: -21.2%
O=C(c1ccc(-c2ccccc2)c(F)c1)C1CCCN(C(=O)c2cncs2)C1 (stereo not drawn)	inconclusive: 79.4 µM [inhibitor, single point]	–
O=C(Nc1cccnc1)NC1CCCCC1	inconclusive: 39.8 µM [inhibitor, single point]	–
CCn1c2ccccc2c2cc(NC(=O)CSc3nnc(C4CC4)n3Cc3ccco3)ccc21	inconclusive: 100 µM [inhibitor, single point]	–

Further results.

| SMILES | Potency | activity change, negative = inhibition |
| --- | --- | --- |
| COC(=O)c1c(C)oc2ccc(N(C(=O)Oc3ccccc3)S(=O)(=O)c3ccc(Cl)c([N+](=O)[O-])c3)cc12 | active: 22.4 µM | – |
| COCc1c(Br)c(C)nc(OCC(=O)N/N=C/c2ccc(C)o2)c1C#N | – | inactive: 17.2% |
| CCCN(CCC)C(=O)C1CCN(c2ccc(S(=O)(=O)N3CCOCC3)cc2[N+](=O)[O-])CC1 | inconclusive: 0.501 µM [inhibitor, full curve, poor fit] | – |
| CCOC(=O)N1CCC(NC(=O)c2ccc3c(c2)N(Cc2ccc(F)cc2)C(=O)c2ccccc2S3=O)CC1 (stereo not drawn) | – | inactive: 23.4% |
| C=CCn1c(Cc2cccs2)nnc1SCC(=O)NCc1ccco1 | inconclusive: 28.2 µM [inhibitor, full curve] | – |
| Cc1ccc(OCc2nnc(NC(=O)c3ccco3)s2)c(C)c1 | inconclusive: 17.8 µM [inhibitor, single point] | – |
| O=C(CSc1nc(-c2ccco2)nc2cc(=O)[nH]n12)Nc1ccc(F)cc1 | active: 39.8 µM | – |
| COc1ccccc1NC(=O)C1=C(C)Nc2nnnn2C1c1cc(Br)ccc1OC (stereo not drawn) | inconclusive: 28.2 µM [inhibitor, single point] | – |
| C/C(=N/NC(=O)c1cc(-c2cccc([N+](=O)[O-])c2)n[nH]1)c1cccc(O)c1 | – | inactive: 21.3% |
| C=C(C)C(=O)Nc1cccc(C2=NOC3(C2)C[C@@H](C(N)=O)N(C(=O)c2cc([N+](=O)[O-])cc([N+](=O)[O-])c2)C3)c1 (stereo partly drawn) | active: 14.1 µM | – |
| CCSc1nc2sc3c(c2c2[n+]1CC(CBr)O2)CCCC3 (stereo not drawn) | inconclusive: 4.47 µM [inhibitor, full curve, poor fit] | – |
| COCCSc1nnc(NC(=O)COC)s1 | inconclusive: 79.4 µM [inhibitor, single point] | – |
| Cc1ccc(CNC(=O)c2cc(=O)c3cc(C)c(C)cc3o2)cc1 | inconclusive: 28.2 µM [inhibitor, partial curve, poor fit] | – |
| O=C(O)c1cccc(-n2cccc2/C=C2/NC(=O)N(c3ccc(Cl)cc3)C2=O)c1 | active: 0.355 µM | – |
| CC1(C)Oc2ccc(C(=O)NC3CCCC3)cc2N(CC(=O)NC2CCCC2)C1=O | inconclusive: 89.1 µM [inhibitor, single point] | – |
| CCOc1cccc2sc(NC(=O)c3ccc(S(=O)(=O)N4CCCCC4)cc3)nc12 | inconclusive: 89.1 µM [inhibitor, single point] | – |
| COCC(C)NC(=O)c1ccc2nc(-c3ccccc3)c(-c3ccccc3)nc2c1 (stereo not drawn) | inconclusive: 10 µM [inhibitor, partial curve] | – |
| Cc1[nH]c(=O)[nH]c(=O)c1/C=N/NC(=O)[C@@H](N)CC(C)C | inconclusive: 2.82 µM [inhibitor, full curve, poor fit] | – |
| CCC(=O)Nc1ccc(C)cc1-c1nc2ccccc2n(CC(=O)c2ccc(C)cc2)c1=O | inconclusive: 100 µM [inhibitor, single point] | – |
| Cc1ccc(Nc2nc(-c3sc(N)nc3C)cs2)cc1 | – | inactive: 2.39% |
| O=c1[nH]cnc(O)c1C(c1ccc(F)cc1)c1c(O)nc[nH]c1=O | inconclusive: 89.1 µM [inhibitor, single point] | – |
